Reference: US12016858B2, “Methods for the treatment of abnormal involuntary movement disorders” (AUSPEX PHARMACEUTICALS, INC., priority 2015, dated 2024)

System: subjects with manifest HD, chorea
Assay: ARC-HD open-label, single-arm study (Rollover and Switch cohorts)
Type: in vivo, human
Settings: Week 28
Description: In a second clinical trial, a method for converting patients with adequate control of chorea with tetrabenazine to deutetrabenazine treatment was implemented. Alternatives for Reducing Chorea in Huntington Disease (ARC-HD) was an open-label, single-arm study in which subjects with manifest HD who were receiving FDA-approved doses of tetrabenazine for the treatment of chorea or had successfully completed First-HD were invited to participate. The study thus comprised two cohorts. […] The investigator, in consultation with the subject and caregiver, determined when an adequate level of chorea control had been achieved. If a subject experienced a “clinically significant” adverse event attributable to deutetrabenazine, the investigator determined if a dose reduction or suspension was necessary. […] The investigator, in consultation with the subject and caregiver, determined when an adequate level of chorea control was achieved; the dose of DTBZ could be increased on a weekly basis until there was adequate control of chorea, the subject experienced a protocol defined clinically significant adverse event, or the maximal allowable dose was reached. […]

With `[2H]C([2H])([2H])Oc1cc2c(cc1OC([2H])([2H])[2H])C1CC(=O)C(CC(C)C)CN1CC2` (stereo not drawn) [deutetrabenazine, (RR, SS)-1,3,4,6,7,11b-hexahydro-9,10-di(methoxy-d3)-3-(2-methylpropyl)-2H-benzo[a]quinolizin-2-one] the “weight loss (trend)” value (Rollover Cohort) was 1.4 kg and the “weight loss (trend)” value (Switch cohort) was 1.9 kg.
